This assay addresses mouse κ-opioid receptor (KOR) tagged with EGFP (mouse) (UniProt P33534). As to the kind of experiment: FRET or BRET; HEK293 cells co-transfected with human β-arrestin-2 nano-luciferase and mouse KOR-EGFP (1:10); furimazine; read 5 min after adding dyn A 1–13 or helianorphin-19 at 37 °C.

By UniProt entry, the sequences of proteins in these tests, tags left out.
UniProt P33534: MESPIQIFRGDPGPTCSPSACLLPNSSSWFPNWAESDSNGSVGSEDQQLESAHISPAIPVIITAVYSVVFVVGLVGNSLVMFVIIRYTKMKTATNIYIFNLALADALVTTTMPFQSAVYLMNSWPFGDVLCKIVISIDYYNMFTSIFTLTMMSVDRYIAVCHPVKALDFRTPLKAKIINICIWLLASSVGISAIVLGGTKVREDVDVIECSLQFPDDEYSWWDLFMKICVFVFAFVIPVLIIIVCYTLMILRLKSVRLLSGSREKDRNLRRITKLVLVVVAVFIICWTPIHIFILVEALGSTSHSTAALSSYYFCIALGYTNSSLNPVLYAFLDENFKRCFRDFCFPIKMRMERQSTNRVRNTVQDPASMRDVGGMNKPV
UniProt P32121: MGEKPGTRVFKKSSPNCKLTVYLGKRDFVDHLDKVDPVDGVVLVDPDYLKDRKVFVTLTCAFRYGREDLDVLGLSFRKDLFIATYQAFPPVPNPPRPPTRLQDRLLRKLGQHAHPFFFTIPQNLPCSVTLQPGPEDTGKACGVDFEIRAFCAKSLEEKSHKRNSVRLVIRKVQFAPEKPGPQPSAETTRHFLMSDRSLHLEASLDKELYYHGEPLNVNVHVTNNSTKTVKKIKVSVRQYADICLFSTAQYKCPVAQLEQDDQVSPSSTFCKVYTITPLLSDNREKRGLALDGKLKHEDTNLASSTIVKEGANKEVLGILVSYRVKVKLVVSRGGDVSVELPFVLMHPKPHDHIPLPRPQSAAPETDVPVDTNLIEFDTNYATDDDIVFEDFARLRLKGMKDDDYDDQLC

These are yes or no findings as the source states them, for the method shown. Binding seen in cells or lysates may run through a third protein. Some binding calls cover weakened binding; strength is not graded here.

Consider “human β-arrestin-2 fused to nano-luciferase (from UniProt P32121 1-409)”, for which the binding entry was “binds”.

(Values after paper PMC8273886.)
